US10676507B2 (GemVax & KAEL CO., LTD., priority 2015, dated 2020)
End groups of sequences in plain letters are not given here.

Assay: general procedure: Fmoc solid-phase peptide synthesis; 2-chloro-Trityl Resin; HBTU/HOBt/NMM
Conditions: whole synthesis, analytical HPLC

## ALSSRLRA
  final HPLC purity: 95% purity or higher
